No constants are given. Whether binding was seen depends on the method and setting. A result given as binding can be weak or reduced; the word gives no strength. Where a sequence is shown, tags or fusion partners need not be part of it.
How the values were obtained:
[1] = target: T1, GST-CSPα 1-112 (rat) (UniProt P60905); assay: pull-down; GST-CSPα fusion proteins immobilised on sepharose beads, incubated with 1 µM soluble recombinant Hsp40 or its mutants; washed, Western blot with anti-Hsp40 polyclonal; both purified
T1 sequence: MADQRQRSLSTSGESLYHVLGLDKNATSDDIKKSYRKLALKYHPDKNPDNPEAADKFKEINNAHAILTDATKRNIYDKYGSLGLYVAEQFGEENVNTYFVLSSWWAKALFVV

[2] = target: T2, GST-CSPα 1-198 (full length cysteine string protein alpha) (rat) (UniProt P60905); assay: as above
T2 sequence: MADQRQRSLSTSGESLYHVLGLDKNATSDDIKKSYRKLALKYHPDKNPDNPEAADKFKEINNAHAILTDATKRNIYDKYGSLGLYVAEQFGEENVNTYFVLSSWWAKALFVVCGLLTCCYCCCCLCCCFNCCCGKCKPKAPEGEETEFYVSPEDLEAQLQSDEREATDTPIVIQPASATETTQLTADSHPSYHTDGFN

binding [1]	binding [2]	Substance
no binding (tested: 1 µM)	no binding (tested: 1 µM)	Hsp40 1-80 (rat) (domain or fragment)
binds	binds	Hsp40 1-340 HPD→AAA (rat)
no binding (tested: 1 µM)	no binding (tested: 1 µM)	Hsp40 1-80 HPD→AAA (rat) (domain or fragment)
binds	binds	Hsp40 1-340 (full length, soluble recombinant) (rat)

Source: paper PMC2643527
